The record followed here is paper PMC9095502.

By UniProt entry, the sequences of proteins in these tests, tags left out.
UniProt P11275: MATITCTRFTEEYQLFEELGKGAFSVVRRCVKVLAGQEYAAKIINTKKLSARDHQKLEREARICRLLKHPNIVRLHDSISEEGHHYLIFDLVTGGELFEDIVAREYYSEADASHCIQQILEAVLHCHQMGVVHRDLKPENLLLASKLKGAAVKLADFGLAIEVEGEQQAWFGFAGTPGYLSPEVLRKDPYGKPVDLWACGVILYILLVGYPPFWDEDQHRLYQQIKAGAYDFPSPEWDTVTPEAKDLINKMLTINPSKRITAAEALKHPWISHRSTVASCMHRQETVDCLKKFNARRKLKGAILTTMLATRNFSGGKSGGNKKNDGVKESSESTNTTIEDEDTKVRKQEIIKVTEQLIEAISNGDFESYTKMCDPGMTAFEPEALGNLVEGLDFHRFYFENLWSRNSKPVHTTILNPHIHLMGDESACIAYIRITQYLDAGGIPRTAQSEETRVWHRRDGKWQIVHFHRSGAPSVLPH
UniProt P63018: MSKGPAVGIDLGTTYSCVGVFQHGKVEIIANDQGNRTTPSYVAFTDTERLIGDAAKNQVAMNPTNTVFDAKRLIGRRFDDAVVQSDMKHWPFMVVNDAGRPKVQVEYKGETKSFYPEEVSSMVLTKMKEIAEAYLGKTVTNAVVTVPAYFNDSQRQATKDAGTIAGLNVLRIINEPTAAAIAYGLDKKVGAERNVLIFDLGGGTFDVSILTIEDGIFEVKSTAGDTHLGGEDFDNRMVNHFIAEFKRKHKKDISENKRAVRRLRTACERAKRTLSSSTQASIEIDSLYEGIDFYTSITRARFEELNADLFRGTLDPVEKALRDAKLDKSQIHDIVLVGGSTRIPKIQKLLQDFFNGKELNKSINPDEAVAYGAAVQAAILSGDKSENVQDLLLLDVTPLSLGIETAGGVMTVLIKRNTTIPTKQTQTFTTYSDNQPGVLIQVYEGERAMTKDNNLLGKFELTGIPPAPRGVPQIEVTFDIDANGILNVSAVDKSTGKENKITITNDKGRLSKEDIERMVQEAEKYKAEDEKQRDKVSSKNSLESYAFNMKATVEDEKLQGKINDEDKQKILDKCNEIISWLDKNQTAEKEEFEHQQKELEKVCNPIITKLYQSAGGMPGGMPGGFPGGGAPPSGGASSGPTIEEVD
UniProt P21707: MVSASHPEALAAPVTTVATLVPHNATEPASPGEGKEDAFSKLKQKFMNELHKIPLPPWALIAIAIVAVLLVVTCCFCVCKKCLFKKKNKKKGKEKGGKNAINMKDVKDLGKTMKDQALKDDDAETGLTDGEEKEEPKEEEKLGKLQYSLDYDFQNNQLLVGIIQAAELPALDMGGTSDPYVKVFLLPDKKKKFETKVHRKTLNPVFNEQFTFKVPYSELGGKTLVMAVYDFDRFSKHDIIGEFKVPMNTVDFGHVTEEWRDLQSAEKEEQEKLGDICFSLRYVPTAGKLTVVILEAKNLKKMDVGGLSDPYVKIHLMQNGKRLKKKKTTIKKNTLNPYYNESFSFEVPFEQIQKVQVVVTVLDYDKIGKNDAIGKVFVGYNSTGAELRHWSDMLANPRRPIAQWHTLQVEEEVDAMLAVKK
UniProt P61765: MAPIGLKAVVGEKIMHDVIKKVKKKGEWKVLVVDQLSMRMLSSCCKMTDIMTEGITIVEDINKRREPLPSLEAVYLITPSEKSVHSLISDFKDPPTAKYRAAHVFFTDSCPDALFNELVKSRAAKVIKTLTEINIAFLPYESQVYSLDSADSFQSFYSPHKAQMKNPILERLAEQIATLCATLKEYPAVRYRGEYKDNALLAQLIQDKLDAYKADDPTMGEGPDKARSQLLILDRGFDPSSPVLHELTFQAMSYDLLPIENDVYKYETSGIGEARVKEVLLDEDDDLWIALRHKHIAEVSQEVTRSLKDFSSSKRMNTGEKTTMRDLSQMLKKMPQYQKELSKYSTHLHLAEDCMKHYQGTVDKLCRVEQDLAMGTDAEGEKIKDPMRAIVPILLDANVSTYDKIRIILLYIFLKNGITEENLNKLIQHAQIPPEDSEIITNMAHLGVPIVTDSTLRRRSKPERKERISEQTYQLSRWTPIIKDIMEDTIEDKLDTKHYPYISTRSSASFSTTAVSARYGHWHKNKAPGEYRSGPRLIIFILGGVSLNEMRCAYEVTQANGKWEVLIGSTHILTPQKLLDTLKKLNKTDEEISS

Results are given in words; binding and its absence hold for the method and conditions named. Binding seen in cells or lysates may run through a third protein. A yes stands for co-enrichment or nearness to the bait. Other partners may have been found. Sequences can lack the tags named with a protein.

The target of test [1] is T1, DGKθ-GFP-APEX2 (UniProt P52824).
T1 sequence: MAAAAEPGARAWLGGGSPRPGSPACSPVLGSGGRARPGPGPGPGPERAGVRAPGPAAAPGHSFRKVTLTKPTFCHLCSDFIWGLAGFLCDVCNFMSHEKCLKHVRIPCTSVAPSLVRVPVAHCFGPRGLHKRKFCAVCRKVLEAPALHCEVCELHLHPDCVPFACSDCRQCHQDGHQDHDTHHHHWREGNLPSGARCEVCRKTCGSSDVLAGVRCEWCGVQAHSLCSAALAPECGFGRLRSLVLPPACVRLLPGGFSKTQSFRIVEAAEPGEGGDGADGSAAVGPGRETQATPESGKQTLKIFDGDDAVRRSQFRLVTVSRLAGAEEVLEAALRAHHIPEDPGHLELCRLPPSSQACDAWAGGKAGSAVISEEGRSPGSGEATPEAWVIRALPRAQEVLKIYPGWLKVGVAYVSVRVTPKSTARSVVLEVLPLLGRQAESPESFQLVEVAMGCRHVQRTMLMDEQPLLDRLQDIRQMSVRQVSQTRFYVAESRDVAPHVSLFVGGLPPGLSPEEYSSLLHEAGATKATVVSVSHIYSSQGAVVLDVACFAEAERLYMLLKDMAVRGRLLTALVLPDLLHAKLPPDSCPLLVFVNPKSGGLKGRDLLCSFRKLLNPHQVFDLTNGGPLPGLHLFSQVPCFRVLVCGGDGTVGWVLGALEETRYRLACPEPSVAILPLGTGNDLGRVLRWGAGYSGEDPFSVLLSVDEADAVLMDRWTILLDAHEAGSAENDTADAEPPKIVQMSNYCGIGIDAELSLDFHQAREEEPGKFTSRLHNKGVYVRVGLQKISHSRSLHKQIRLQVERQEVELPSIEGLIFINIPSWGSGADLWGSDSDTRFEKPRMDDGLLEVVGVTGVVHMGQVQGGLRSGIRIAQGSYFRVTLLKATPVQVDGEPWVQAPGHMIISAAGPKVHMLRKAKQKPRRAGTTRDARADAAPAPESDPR
As to the kind of experiment: proximity labelling; same APEX2 labelling of rat cortical neurons (DIV21), depolarized and non-depolarized; biotinylated proteins pulled down from the lysate on streptavidin beads, eluates read by Western blot with an antibody to each candidate. (Immunoblotting shows a protein as a band on a membrane.)

Test [2] addresses T1, DGKθ-GFP-APEX2. Put plainly: proximity labelling; DGKθ-GFP-APEX2 electroporated into rat cortical neurons (DIV21); biotin-phenol 500 μM 30 min, H2O2 1 mM 1 min, with or without 50 mM KCl for 30 s; lysates trypsinised, biotinylated peptides enriched on streptavidin beads, LC-MS/MS; three experiments.

Consider “calcium calmodulin-dependent kinase II alpha (CaMKIIα) (endogenous, rat cortical neurons) (from UniProt P11275 1-478)”, for which the binding entry in test [1] and in test [2] was “binds” throughout.
As for “heat shock cognate 71 (Hsc70) (endogenous, rat cortical neurons) (from UniProt P63018 1-646)”, the binding entry in test [1] and in test [2] was “binds” in each case.
Consider “synaptotagmin-1 (Syt1) (endogenous, rat cortical neurons) (from UniProt P21707 1-421)”, for which the binding result in test [1] and in test [2] was “binds” each time.
Consider “syntaxin-binding protein 1 (Munc18-1) (endogenous, rat cortical neurons) (from UniProt P61765 1-594)”, for which the binding result in test [1] and in test [2] was “binds” each time.

B1: dynamin-1 (endogenous, rat cortical neurons) (protein, UniProt P21575 1-864)
chain: MGNRGMEDLIPLVNRLQDAFSAIGQNADLDLPQIAVVGGQSAGKSSVLENFVGRDFLPRGSGIVTRRPLVLQLVNSTTEYAEFLHCKGKKFTDFEEVRLEIEAETDRVTGTNKGISPVPINLRVYSPHVLNLTLVDLPGMTKVPVGDQPPDIEFQIRDMLMQFVTKENCLILAVSPANSDLANSDALKIAKEVDPQGQRTIGVITKLDLMDEGTDARDVLENKLLPLRRGYIGVVNRSQKDIDGKKDITAALAAERKFFLSHPSYRHLADRMGTPYLQKVLNQQLTNHIRDTLPGLRNKLQSQLLSIEKEVDEYKNFRPDDPARKTKALLQMVQQFAVDFEKRIEGSGDQIDTYELSGGARINRIFHERFPFELVKMEFDEKELRREISYAIKNIHGIRTGLFTPDLAFEATVKKQVQKLKEPSIKCVDMVVSELTSTIRKCSEKLQQYPRLREEMERIVTTHIREREGRTKEQVMLLIDIELAYMNTNHEDFIGFANAQQRSNQMNKKKTSGNQDEILVIRKGWLTINNIGIMKGGSKEYWFVLTAENLSWYKDDEEKEKKYMLSVDNLKLRDVEKGFMSSKHIFALFNTEQRNVYKDYRQLELACETQEEVDSWKASFLRAGVYPERVGDKEKASETEENGSDSFMHSMDPQLERQVETIRNLVDSYMAIVNKTVRDLMPKTIMHLMINNTKEFIFSELLANLYSCGDQNTLMEESAEQAQRRDEMLRMYHALKEALSIIGDINTTTVSTPMPPPVDDSWLQVQSVPAGRRSPTSSPTPQRRAPAVPPARPGSRGPAPGPPPAGSALGGAPPVPSRPGASPDPFGPPPQVPSRPNRAPPGVPSRSGQASPSRPESPRPPFDL
In the case of B1, the binding entry in test [1] and in test [2] was “binds” throughout.

B2: synaptogyrin-1 (endogenous, rat cortical neurons) (protein, UniProt Q62876 1-234)
chain: MEGGAYGAGKAGGAFDPYTLVRQPHTILRVVSWVFSIVVFGSIVNEGYLNNPEEEEEFCIYNRNPNACSYGVTVGVLAFLTCLVYLALDVYFPQISSVKDRKKAVLSDIGVSAFWAFFWFVGFCFLANQWQVSKPKDNPLNEGTDAARAAIAFSFFSIFTWAGQAVLAFQRYQIGADSALFSQDYMDPSQDSSMPYAPYVEPSAGSDPTGMGGTYQHPANAFDAEPQGYQSQGY
In the case of B2, the binding entry in test [1] and in test [2] was “binds” each time.

B3: syntaxin-7 (endogenous, rat cortical neurons) (protein, UniProt O70257 1-261)
chain: MSYTPGIGGDPAQLAQRISSNIQKITQCSAEIQRTLNQLGTPQDTPELRQQLQQEQQYTNQLAKETDKYIKEFGFLPTTPSEQRQRKIQKDRLVAEFTTALTNFQKVQRQAAEREKEFVARVRASSRVSGGFPEDSSKEKNFVSWESQTQPQVQVQDEEITEDDLRLIHERESSIRQLEADIMDINEIFKDLGMMIHEQGDVIDSIEANVESAEVHVQQANQQLSRAANYQRKSRKTLCIIILILVVGIVIIFFIVWGLKG
As to B3, the binding result in test [1] and in test [2] was “binds” in each case.
